Measured values reported in US20110014656A1.
These are yes or no findings as the source states them, for the method shown. Some entries that bind do so weakly or less than the wild type.

Key:
Conditions in all cases: remark: other sources report otherwise
[1] = molecular target: T1, human IL-17 receptor (IL-17RA) on transfected cells (human), Q96F46; assay: FACS, mean fluorescence over a range of cytokine concentrations on BHK transfectants; FACS, mean fluorescence over a range of cytokine concentrations
[2] = molecular target: T1, human IL-17 receptor (IL-17RA) on …; assay: FACS competition, unlabeled vs biotinylated cytokine on BHK cells
[3] = molecular target: T1, human IL-17 receptor (IL-17RA) on …; assay: FACS, biotinylated cytokine + SA-PE on transfected BHK cells; FACS, biotinylated IL-17F + SA-PE on IL-17R-transfected BHK cells, on ice
[4] = molecular target: T1, human IL-17 receptor (IL-17RA) on …; assay: FACS competition, unlabeled vs biotinylated cytokine on BHK cells; FACS competition, unlabeled vs biotinylated cytokine; binding specific but of low avidity
[5] = molecular target: T1, human IL-17 receptor (IL-17RA) on …; assay: FACS, biotinylated cytokine on stably transfected BHK cells; FACS, biotinylated hIL-17F on stably hIL-17RA-transfected BHK cells
[6] = molecular target: T1, human IL-17 receptor (IL-17RA) on …; assay: saturation binding, 125I-cytokine on BHK cells
[7] = molecular target: T1, human IL-17 receptor (IL-17RA) on …; assay: binding curve fits to the experiments of Table 7, receptor on transfected cells

binding [1]: binds
binding [2]: binds
binding [3]: binds
binding [4]: binds
binding [5]: binds
binding [6]: binds
binding [7]: binds
B1: human IL-17F, Q96PD4 31-163 (ligand)
chain: RKIPKVGHTFFQKPESCPPVPGGSMKLDIGIINENQRVSMSRNIESRSTSPWNYTVTWDPNRYPSEVVQAQCRNLGCINAQGKEDISMNSVPIQQETLVVRRKHQGCSVSFQLEKVLVTVGCTCVTPVIHHVQ
